The list shows a part of the results.
Legend:
Assay in all cases: log2 fold change, soluble protein after heating vs DMSO (PISA); higher = thermal stabilisation; K562 lysate, 10 uM; active = over 0.2 and 3.5 SD of the protein, either way, in both replicates (recomputed)
[1] = compound: Cc1sc2c(c1C)C(c1ccc(Cl)cc1)=N[C@@H](CC(=O)OC(C)(C)C)c1nnc(C)n1-2
Method in brief: (§1)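 Following dounce homogenisation of K562 pellets in PBS pH 7.4 with 1 mM MgCl2, crude extract at 1 mg/mL protein was incubated for 30 min with 10 μM compound. Aliquots were then heated for 3 min over 48°C-58°C and pooled, NP-40 was added to 0.5% at 4°C, and soluble protein was recovered as the supernatant at 21,000xg for 90 min. Channel-sum-equalised TMTpro 16plex LC-MS/MS quantified this protein. Each value, from duplicates, is a log-two fold change in thermal stability relative to solvent controls.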

Protein sequences, listed by entry. Tags and fused reporters are not part of them. Lines headed by an entry give the natural chain unless they say otherwise; changes in a name come on top.
UniProt Q5SZL2: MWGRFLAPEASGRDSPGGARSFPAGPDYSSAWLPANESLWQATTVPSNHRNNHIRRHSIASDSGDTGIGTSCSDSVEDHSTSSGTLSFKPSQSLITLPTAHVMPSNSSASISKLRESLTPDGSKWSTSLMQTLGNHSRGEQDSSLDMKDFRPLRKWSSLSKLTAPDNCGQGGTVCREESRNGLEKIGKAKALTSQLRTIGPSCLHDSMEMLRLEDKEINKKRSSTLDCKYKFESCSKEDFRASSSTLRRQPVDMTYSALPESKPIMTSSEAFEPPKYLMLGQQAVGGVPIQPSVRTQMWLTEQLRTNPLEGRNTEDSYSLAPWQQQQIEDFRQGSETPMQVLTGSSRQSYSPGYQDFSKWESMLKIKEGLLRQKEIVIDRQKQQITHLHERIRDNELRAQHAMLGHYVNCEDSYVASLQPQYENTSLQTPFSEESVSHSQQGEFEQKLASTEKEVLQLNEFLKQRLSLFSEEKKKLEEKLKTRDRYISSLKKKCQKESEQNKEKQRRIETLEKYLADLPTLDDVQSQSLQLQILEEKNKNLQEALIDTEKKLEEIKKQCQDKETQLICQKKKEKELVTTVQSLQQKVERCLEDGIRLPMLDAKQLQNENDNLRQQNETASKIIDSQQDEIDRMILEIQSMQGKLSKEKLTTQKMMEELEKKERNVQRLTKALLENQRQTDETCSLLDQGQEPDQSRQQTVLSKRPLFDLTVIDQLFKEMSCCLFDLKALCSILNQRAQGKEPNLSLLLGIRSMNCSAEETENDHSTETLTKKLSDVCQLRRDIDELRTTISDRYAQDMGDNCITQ
UniProt Q9BU64: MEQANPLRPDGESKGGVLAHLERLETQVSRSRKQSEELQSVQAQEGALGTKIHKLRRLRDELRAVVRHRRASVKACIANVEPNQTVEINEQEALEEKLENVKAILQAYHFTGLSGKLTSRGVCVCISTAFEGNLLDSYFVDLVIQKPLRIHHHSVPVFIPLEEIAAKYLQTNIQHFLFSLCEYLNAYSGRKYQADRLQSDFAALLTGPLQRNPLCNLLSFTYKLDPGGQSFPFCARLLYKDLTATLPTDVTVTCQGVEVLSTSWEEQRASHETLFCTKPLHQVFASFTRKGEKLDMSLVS
UniProt Q6ZTR5: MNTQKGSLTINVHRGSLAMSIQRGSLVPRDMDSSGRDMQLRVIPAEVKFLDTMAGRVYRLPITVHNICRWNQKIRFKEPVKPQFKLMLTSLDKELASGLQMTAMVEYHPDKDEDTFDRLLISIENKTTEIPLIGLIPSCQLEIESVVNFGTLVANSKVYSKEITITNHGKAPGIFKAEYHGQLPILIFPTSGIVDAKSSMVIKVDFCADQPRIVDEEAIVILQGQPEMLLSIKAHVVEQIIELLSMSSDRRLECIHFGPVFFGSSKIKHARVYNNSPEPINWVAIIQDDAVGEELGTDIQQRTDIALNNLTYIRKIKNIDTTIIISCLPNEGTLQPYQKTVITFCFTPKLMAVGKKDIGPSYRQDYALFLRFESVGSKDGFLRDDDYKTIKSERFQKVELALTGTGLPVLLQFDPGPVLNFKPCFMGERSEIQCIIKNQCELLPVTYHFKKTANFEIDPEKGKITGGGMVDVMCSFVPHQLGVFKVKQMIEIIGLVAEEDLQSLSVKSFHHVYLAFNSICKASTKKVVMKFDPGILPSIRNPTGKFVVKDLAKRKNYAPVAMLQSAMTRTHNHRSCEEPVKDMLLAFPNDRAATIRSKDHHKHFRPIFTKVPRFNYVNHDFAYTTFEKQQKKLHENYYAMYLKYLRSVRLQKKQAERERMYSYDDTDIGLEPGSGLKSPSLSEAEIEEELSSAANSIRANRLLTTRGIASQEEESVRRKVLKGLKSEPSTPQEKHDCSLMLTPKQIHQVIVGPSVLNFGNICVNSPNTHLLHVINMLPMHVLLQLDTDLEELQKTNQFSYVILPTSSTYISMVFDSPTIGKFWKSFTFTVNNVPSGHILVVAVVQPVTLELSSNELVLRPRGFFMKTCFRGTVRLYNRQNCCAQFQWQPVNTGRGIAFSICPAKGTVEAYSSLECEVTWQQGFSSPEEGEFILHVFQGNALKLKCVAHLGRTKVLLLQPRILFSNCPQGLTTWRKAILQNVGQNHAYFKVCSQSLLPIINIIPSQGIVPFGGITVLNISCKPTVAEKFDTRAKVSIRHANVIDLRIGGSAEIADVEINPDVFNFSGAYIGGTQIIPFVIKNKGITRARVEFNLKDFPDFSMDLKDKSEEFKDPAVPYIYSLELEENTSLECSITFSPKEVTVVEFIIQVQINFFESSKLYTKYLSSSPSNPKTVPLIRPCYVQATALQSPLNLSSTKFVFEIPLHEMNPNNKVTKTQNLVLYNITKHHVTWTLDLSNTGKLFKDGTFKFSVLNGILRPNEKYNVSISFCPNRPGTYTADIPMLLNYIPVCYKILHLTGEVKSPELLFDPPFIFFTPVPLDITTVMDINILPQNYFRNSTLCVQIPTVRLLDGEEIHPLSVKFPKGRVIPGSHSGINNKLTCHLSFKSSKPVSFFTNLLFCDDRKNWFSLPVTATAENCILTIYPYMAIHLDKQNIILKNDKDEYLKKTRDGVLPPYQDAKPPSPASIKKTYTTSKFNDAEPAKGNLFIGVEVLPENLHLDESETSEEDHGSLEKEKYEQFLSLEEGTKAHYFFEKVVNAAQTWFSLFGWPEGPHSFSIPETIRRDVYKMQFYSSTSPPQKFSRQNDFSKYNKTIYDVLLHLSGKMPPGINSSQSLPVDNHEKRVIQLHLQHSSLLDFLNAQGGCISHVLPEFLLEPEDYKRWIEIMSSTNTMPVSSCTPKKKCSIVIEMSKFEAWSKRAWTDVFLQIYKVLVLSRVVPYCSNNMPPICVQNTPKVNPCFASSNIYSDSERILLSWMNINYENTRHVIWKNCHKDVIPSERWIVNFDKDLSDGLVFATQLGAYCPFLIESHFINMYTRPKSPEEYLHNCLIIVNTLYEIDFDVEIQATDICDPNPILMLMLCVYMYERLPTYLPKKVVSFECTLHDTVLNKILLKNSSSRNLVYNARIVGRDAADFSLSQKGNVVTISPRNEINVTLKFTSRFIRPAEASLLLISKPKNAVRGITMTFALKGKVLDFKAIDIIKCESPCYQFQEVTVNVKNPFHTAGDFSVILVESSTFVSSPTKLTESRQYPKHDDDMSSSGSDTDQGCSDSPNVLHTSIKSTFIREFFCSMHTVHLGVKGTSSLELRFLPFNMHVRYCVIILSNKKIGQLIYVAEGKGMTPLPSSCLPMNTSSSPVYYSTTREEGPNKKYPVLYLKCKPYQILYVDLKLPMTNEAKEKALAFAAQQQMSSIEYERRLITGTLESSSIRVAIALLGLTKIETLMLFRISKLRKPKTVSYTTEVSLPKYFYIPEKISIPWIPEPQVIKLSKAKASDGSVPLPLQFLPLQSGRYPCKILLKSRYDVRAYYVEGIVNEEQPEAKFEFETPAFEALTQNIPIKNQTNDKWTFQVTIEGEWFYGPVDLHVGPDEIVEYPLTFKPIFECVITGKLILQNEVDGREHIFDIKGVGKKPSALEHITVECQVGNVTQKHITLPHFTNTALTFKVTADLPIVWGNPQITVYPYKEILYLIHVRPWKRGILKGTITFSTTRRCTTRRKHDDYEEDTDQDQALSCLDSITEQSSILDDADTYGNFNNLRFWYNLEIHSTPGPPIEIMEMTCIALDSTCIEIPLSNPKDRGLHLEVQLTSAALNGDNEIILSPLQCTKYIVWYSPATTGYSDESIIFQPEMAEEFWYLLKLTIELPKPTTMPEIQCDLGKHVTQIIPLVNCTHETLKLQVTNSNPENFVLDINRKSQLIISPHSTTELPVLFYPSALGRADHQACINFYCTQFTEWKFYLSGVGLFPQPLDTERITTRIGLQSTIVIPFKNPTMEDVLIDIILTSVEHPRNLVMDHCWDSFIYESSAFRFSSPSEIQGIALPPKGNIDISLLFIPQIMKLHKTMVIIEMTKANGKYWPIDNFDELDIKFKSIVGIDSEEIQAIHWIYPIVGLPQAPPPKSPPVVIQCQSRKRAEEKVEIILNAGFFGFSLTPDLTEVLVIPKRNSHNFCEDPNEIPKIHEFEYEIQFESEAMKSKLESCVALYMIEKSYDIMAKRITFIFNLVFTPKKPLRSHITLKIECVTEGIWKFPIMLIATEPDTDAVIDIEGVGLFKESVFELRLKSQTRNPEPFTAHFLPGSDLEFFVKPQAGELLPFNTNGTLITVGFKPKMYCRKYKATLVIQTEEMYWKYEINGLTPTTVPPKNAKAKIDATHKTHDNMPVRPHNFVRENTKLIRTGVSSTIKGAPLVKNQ
UniProt O15519, whole entry, looked up: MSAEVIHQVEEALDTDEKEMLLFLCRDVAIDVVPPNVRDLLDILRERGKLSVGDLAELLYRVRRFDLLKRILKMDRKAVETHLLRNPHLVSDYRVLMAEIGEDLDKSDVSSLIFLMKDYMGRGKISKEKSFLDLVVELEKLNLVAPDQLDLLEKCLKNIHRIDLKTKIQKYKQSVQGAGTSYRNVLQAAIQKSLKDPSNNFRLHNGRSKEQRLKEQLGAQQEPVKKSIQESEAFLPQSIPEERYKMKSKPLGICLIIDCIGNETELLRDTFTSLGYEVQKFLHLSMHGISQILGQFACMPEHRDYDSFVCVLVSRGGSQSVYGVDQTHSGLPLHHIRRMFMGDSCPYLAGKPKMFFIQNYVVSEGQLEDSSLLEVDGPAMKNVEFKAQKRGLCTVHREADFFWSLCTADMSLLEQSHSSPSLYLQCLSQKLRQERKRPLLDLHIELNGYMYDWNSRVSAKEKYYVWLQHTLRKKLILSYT
UniProt Q9UIB8: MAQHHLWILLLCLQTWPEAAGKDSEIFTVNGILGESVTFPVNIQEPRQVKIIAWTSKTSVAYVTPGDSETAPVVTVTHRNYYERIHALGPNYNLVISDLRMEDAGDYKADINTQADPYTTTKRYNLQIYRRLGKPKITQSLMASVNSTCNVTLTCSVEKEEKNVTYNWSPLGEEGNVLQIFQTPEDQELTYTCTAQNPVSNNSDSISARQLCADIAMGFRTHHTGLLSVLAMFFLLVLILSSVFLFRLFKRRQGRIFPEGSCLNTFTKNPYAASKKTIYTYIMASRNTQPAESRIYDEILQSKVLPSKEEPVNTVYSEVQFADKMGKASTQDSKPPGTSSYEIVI
UniProt Q9H211: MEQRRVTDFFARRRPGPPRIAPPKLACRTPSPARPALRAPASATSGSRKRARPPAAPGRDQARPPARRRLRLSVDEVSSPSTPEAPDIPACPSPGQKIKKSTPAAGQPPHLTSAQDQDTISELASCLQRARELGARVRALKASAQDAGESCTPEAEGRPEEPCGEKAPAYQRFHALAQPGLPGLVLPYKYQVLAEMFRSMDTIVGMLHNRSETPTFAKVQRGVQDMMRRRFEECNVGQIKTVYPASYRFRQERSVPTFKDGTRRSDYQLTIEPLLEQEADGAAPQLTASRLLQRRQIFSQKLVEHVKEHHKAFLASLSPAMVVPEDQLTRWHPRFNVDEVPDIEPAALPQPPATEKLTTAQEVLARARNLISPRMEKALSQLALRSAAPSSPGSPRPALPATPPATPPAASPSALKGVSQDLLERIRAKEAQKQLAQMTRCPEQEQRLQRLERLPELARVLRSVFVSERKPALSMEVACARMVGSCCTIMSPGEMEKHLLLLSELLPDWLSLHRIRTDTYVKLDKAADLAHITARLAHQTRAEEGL
UniProt Q9NSP4: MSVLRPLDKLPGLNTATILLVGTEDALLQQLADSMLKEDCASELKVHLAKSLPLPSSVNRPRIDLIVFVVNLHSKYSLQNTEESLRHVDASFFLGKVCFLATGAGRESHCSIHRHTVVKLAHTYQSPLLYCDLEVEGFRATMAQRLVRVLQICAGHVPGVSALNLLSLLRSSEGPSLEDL
UniProt Q96MT8: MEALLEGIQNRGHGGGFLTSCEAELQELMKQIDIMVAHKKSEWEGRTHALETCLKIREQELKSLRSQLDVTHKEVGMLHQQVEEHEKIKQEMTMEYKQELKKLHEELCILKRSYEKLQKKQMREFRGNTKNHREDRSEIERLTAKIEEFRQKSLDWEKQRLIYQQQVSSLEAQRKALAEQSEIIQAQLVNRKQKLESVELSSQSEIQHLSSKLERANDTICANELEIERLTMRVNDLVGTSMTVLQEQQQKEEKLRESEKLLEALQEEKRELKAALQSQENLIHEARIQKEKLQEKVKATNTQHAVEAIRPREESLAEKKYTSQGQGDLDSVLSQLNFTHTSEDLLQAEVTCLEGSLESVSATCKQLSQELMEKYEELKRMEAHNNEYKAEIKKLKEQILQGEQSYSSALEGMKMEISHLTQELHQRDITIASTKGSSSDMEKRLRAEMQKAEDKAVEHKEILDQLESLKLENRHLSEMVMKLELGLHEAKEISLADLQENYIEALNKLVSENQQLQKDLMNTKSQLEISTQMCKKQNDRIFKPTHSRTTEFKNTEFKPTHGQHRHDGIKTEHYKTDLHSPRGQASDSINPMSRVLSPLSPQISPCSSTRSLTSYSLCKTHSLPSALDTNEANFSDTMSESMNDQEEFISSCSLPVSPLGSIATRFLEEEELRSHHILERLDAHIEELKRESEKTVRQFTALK

[2] = compound: C1=CC=C(C=C1)[C@H](COC2=CC3=C(C=C2)NC(=O)N3)NC(=O)C4=CC=CN(C4=O)CC5=CC(=C(C=C5)F)F
Method in brief: as §1

[3] = compound: CC1=C(SC2=C1C(=N[C@H](C3=NN=C(N32)C)CC(=O)N)C4=CC=C(C=C4)Cl)C
Method in brief: as §1

[4] = compound: c1ccc([C@@H]2C[C@H]2NC2CCNCC2)cc1
Method in brief: as §1

[5] = compound: CC1=C2C(=CC=C1)N=C(N(C2=O)C3=CC=CC=C3C)CN4C=NC5=C(N=CN=C54)N
Method in brief: as §1

| Target | log2 fold change [1] | log2 fold change [2] | log2 fold change [3] | log2 fold change [4] | log2 fold change [5] |
| --- | --- | --- | --- | --- | --- |
| CDC25A (UniProt P30304) | inactive: -0.064 |  |  |  |  |
| CDC42SE1 (UniProt Q9NRR8) |  | inactive: -0.229 | inactive: 0.138 | inactive: 0.164 |  |
| CEP85L isoform 4 (UniProt Q5SZL2) |  |  |  |  | inactive: 0.267 |
| CENPO (UniProt Q9BU64) |  |  |  | inactive: 0.09 |  |
| CFAP47 (UniProt Q6ZTR5) | inactive: -0.2 |  |  | inactive: -0.148 | inactive: 0.088 |
| CDK11A (UniProt Q9UQ88) | inactive: 0.091 | inactive: -0.046 | inactive: 0.025 | inactive: 0 |  |
| CFLAR (UniProt O15519) | inactive: -0.014 |  |  | inactive: 0.167 | inactive: 0.121 |
| CD84 (UniProt Q9UIB8) |  | inactive: 0.08 | inactive: 0.081 | inactive: 0.079 |  |
| CDT1 (UniProt Q9H211) | inactive: 0.031 | inactive: 0.383 | inactive: 0.066 | inactive: -0.01 |  |
| CEP170B (UniProt Q9Y4F5) | inactive: -0.002 |  |  | inactive: 0.011 | inactive: 0.063 |
| CENPM (UniProt Q9NSP4) | inactive: -0.069 | inactive: 0.036 | inactive: -0.374 | inactive: -0.098 |  |
| CDC6 (UniProt Q99741) | inactive: 0.406 |  |  |  |  |
| CEP63 (UniProt Q96MT8) | inactive: 0.094 |  |  | inactive: -0.13 |  |
| CERS5 (UniProt Q8N5B7) | inactive: -0.015 | inactive: -0.039 | inactive: -0.05 | inactive: -0.044 |  |

Reformatted with bars between the fields: part of the list above
Target | log2 fold change [1] | log2 fold change [2] | log2 fold change [3] | log2 fold change [4] | log2 fold change [5]
CDC42SE1 (UniProt Q9NRR8) |  | inactive: -0.229 | inactive: 0.138 | inactive: 0.164 | 
CEP85L isoform 4 (UniProt Q5SZL2) |  |  |  |  | inactive: 0.267
